The record followed here is PMC8210616, “Adjuvant-free peptide vaccine targeting Clec9a on dendritic cells can induce robust antitumor immune response through Syk/IL-21 axis” (Theranostics, 2021).

Results are given in words; binding and its absence hold for the method and conditions named. Some binding calls cover weakened binding; strength is not graded here.

In the test the target is T1, mouse Clec9a (mClec9a) on transfected HEK-293T cells (mouse) (UniProt Q8BRU4).
T1 sequence: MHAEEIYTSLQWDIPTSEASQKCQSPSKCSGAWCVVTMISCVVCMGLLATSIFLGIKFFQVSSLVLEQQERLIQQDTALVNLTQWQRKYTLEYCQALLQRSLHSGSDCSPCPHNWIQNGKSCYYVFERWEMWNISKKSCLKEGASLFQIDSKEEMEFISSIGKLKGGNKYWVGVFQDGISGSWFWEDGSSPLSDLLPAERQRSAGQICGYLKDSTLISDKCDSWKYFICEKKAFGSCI
As to the kind of experiment: flow cytometry on cells; biotinylated peptides (100 µM) incubated with transiently transfected HEK-293T cells (3 × 10^5, Fc receptors blocked with rat serum) for 30 min on ice, washed three times with FCS buffer containing 2 mM EDTA, stained with SA-PE; only the binder purified.

On to WPRFHSSVRHTHGGGK (biotin on the C-terminal lysine (K^biotin)) [CBP-12^biotin (12-mer Clec9a binding peptide, …-GGG-K^biotin)], for which the binding result was “binds”.
